In patent US20120322150A1, “Mechanism and Method for Regulating Glycogen Synthase Kinase 3 (GSK3)-Related Kinases” (CARNEGIE INSTITUTION OF WASHINGTON, priority 2009, published 2012):
Results are given in words; binding and its absence hold for the method and conditions named. For some of these results: In cells and extracts the contact can be indirect. Some binding calls cover weakened binding; strength is not graded here. Where a sequence is shown, tags or fusion partners need not be part of it.

T1: BIN2-YFP (Arabidopsis) (UniProt Q39011)
T1 sequence (looked up): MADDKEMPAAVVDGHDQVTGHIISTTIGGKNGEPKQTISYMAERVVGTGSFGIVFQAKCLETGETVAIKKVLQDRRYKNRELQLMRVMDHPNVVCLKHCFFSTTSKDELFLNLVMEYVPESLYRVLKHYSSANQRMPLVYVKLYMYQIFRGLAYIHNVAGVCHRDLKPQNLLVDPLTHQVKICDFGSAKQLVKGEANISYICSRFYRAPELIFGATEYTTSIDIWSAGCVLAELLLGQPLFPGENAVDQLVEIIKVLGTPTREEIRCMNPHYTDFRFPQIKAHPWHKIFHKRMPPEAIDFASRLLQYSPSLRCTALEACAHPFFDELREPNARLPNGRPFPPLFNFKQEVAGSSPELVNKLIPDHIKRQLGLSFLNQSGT

T2: bin2-1 fused N-terminal half (nYFP) of yellow fluorescence protein (Arabidopsis) (UniProt Q39011)
T2 sequence (looked up): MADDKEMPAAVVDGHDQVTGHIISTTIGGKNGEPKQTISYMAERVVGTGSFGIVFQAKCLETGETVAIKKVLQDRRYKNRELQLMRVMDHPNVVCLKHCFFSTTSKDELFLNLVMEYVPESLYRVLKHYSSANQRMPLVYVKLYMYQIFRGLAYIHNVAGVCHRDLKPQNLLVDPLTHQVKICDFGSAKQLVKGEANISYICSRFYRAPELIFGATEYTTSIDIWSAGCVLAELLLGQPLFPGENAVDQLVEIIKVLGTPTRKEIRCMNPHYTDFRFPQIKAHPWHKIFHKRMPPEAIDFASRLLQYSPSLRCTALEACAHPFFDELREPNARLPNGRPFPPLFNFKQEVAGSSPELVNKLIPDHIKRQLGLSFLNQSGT


Legend:
[1] = biological target: T1, BIN2-YFP (Arabidopsis); assay: co-immunoprecipitation from tobacco cells
[2] = biological target: T1, BIN2-YFP (Arabidopsis); assay: co-immunoprecipitation from tobacco leaves with anti-GFP antibody, blot with anti-myc
[3] = biological target: T2, bin2-1 fused N-terminal half (nYFP) of yellow fluorescence protein (Arabidopsis); assay: BiFC (FIG. 14)
[4] = biological target: T2, bin2-1 fused N-terminal half (nYFP) of yellow fluorescence protein (Arabidopsis); assay: BiFC

Row | binding [1] | binding [2] | binding [3] | binding [4] | Binder
1 | binds | binds | – | – | BSL1 (co-immunoprecipitation construct, tobacco) (enzyme, not shown: small tags and cut ends) MGSKPWLHPAPQYKTLETFWDDEDDAPGPRCAHTLTAVAATKTHGPRLILFGGATAIEGGSSSVPGIRLAGVTNTVHSYDILTRKWTRLKPAGEPPSPRAAHAAAAVGTMVVFQGGIGPAGHSTDDLYVLDMTNDKFKWHRVVVQGDGPGPRYGHVMDLVSQRYLVTVTGNDGKRALSDAWALDTAQKPYVWQRLNPDGDRPSARMYASGSARSDGMFLLCGGRDTLGAPLGDAYGLLMHRNGQWEWTLAPGVAPSPRYQHAAVFVGARLHVSGGVLRGGRVIDAEASVAVLDTAAGVWLDRNGQVTSARGSKGQIDQDPSFELMRRCRHGAASVGIRIYVHGGLRGDVLLDDFLVAENSTFQSDISSPLLASDRTQQSSTPRFSYAARPPSGSEPSFSMSEGLSLDENSLEKLTEASAAEAEVASSVWRAAQLGAGTLDEEPSTSDASSPIVESTTDGTANEGDVRLHPRAVVVAKETVGSLGGMVRQLSLDQFQNESRRMVPMNNSDVPQPTKKFTRQKSPQGLHKKVIAALLRPRNWKPPGNRKFFLDSYEVGELCYAAEQIFMHEQTVLQLKAPIKVFGDLHGQFGDLMRLFDEYGFPSTAGDITYIDYLFLGDYVDRGQHSLETITLLLALKIEYPENVHLIRGNHEAADINALFGFRLECIERMGENDGIWAWTRFNQLFNYLPLAALIENKIICMHGGIGRSISTVEQIEKIERPITMDAGSLVLMDLLWSDPTENDSIEGLRPNARGPGLVTFGPDRVTEFCKRNKLQLIIRAHECVMDGFERFAQGQLITLFSATNYCGTANNAGAILVVGRGLVIVPKLIHPLPPPILSPENSPEHSGDDAWMQELNIQRPPTPTRGRPQPDFDRSSLAYI
2 | – | – | binds | binds | BSL1 fused C-terminal half (cYFP) of yellow fluorescence protein (enzyme, not shown: large carriers) MGSKPWLHPAPQYKTLETFWDDEDDAPGPRCAHTLTAVAATKTHGPRLILFGGATAIEGGSSSVPGIRLAGVTNTVHSYDILTRKWTRLKPAGEPPSPRAAHAAAAVGTMVVFQGGIGPAGHSTDDLYVLDMTNDKFKWHRVVVQGDGPGPRYGHVMDLVSQRYLVTVTGNDGKRALSDAWALDTAQKPYVWQRLNPDGDRPSARMYASGSARSDGMFLLCGGRDTLGAPLGDAYGLLMHRNGQWEWTLAPGVAPSPRYQHAAVFVGARLHVSGGVLRGGRVIDAEASVAVLDTAAGVWLDRNGQVTSARGSKGQIDQDPSFELMRRCRHGAASVGIRIYVHGGLRGDVLLDDFLVAENSTFQSDISSPLLASDRTQQSSTPRFSYAARPPSGSEPSFSMSEGLSLDENSLEKLTEASAAEAEVASSVWRAAQLGAGTLDEEPSTSDASSPIVESTTDGTANEGDVRLHPRAVVVAKETVGSLGGMVRQLSLDQFQNESRRMVPMNNSDVPQPTKKFTRQKSPQGLHKKVIAALLRPRNWKPPGNRKFFLDSYEVGELCYAAEQIFMHEQTVLQLKAPIKVFGDLHGQFGDLMRLFDEYGFPSTAGDITYIDYLFLGDYVDRGQHSLETITLLLALKIEYPENVHLIRGNHEAADINALFGFRLECIERMGENDGIWAWTRFNQLFNYLPLAALIENKIICMHGGIGRSISTVEQIEKIERPITMDAGSLVLMDLLWSDPTENDSIEGLRPNARGPGLVTFGPDRVTEFCKRNKLQLIIRAHECVMDGFERFAQGQLITLFSATNYCGTANNAGAILVVGRGLVIVPKLIHPLPPPILSPENSPEHSGDDAWMQELNIQRPPTPTRGRPQPDFDRSSLAYI
